Patent US11897927B2, “Immunogenic compositions targeting recurrent cancer mutations and methods of use thereof” (Advaxis, Inc., priority 2016, dated 2024)
The expression values are mRNA levels of the gene; the protein chain is shown to identify it.

Tested on: tumor-associated antigen genes
Experiment: Percent expression of TAA gene in patients (TCGA RNAseqV2 dataset)
Design: species or system human
Conditions: NSCLC panel

| Substance | % Expression in TCGA |
| --- | --- |
| NY-ES01 | 50% |
| MAGE-A6 | 53% |
| MAGE-A4 | 35% |
| RNF43 | 100% |
